This continues a long series; more values of the same kind are listed elsewhere. Peptide text beside a SMILES is read from it. * marks the point of attachment. βNA = c1ccc2cc(N*)ccc2c1
Test system: E. coli AG100A
Test: EtBr efflux by real-time fluorometry
Details: 20 µM

SMILES: NC(N)=NCCC[C@H](NC(=O)[C@@H](N)Cc1ccccc1)C(=O)Nc1ccc2ccccc2c1 [PAβN] (H-Phe-Arg-βNA)
- Fluorescence raw data, Channel Cycling A.530/585hp (cycle 20, without glucose): 1.517
- Fluorescence raw data, Channel Cycling A.530/585hp (cycle 21, + glucose): 1.561
- Fluorescence raw data, Channel Cycling A.530/585hp (cycle 21, without glucose): 1.514
- Fluorescence raw data, Channel Cycling A.530/585hp (cycle 22, + glucose): 1.561
- Fluorescence raw data, Channel Cycling A.530/585hp (cycle 22, without glucose): 1.514
- Fluorescence raw data, Channel Cycling A.530/585hp (cycle 23, + glucose): 1.562
- Fluorescence raw data, Channel Cycling A.530/585hp (cycle 23, without glucose): 1.491
- Fluorescence raw data, Channel Cycling A.530/585hp (cycle 24, + glucose): 1.571
- Fluorescence raw data, Channel Cycling A.530/585hp (cycle 24, without glucose): 1.506
- Fluorescence raw data, Channel Cycling A.530/585hp (cycle 25, + glucose): 1.524
- Fluorescence raw data, Channel Cycling A.530/585hp (cycle 25, without glucose): 1.503
- Fluorescence raw data, Channel Cycling A.530/585hp (cycle 26, + glucose): 1.531
- Fluorescence raw data, Channel Cycling A.530/585hp (cycle 26, without glucose): 1.508
- Fluorescence raw data, Channel Cycling A.530/585hp (cycle 27, + glucose): 1.544
- Fluorescence raw data, Channel Cycling A.530/585hp (cycle 27, without glucose): 1.48
- Fluorescence raw data, Channel Cycling A.530/585hp (cycle 28, + glucose): 1.487
- Fluorescence raw data, Channel Cycling A.530/585hp (cycle 28, without glucose): 1.504
- Fluorescence raw data, Channel Cycling A.530/585hp (cycle 29, + glucose): 1.5009
- Fluorescence raw data, Channel Cycling A.530/585hp (cycle 29, without glucose): 1.524
- Fluorescence raw data, Channel Cycling A.530/585hp (cycle 30, + glucose): 1.526
- Fluorescence raw data, Channel Cycling A.530/585hp (cycle 30, without glucose): 1.529
- Fluorescence raw data, Channel Cycling A.530/585hp (cycle 31, + glucose): 1.525
- Fluorescence raw data, Channel Cycling A.530/585hp (cycle 31, without glucose): 1.514
- Fluorescence raw data, Channel Cycling A.530/585hp (cycle 32, + glucose): 1.457
- Fluorescence raw data, Channel Cycling A.530/585hp (cycle 32, without glucose): 1.47
- Fluorescence raw data, Channel Cycling A.530/585hp (cycle 33, + glucose): 1.471
- Fluorescence raw data, Channel Cycling A.530/585hp (cycle 33, without glucose): 1.433
- Fluorescence raw data, Channel Cycling A.530/585hp (cycle 34, + glucose): 1.426
- Fluorescence raw data, Channel Cycling A.530/585hp (cycle 34, without glucose): 1.434
- Fluorescence raw data, Channel Cycling A.530/585hp (cycle 35, + glucose): 1.471
- Fluorescence raw data, Channel Cycling A.530/585hp (cycle 35, without glucose): 1.47
- Fluorescence raw data, Channel Cycling A.530/585hp (cycle 36, + glucose): 1.462
- Fluorescence raw data, Channel Cycling A.530/585hp (cycle 36, without glucose): 1.472
- Fluorescence raw data, Channel Cycling A.530/585hp (cycle 37, + glucose): 1.422
- Fluorescence raw data, Channel Cycling A.530/585hp (cycle 37, without glucose): 1.445
- Fluorescence raw data, Channel Cycling A.530/585hp (cycle 38, + glucose): 1.451
- Fluorescence raw data, Channel Cycling A.530/585hp (cycle 38, without glucose): 1.476
- Fluorescence raw data, Channel Cycling A.530/585hp (cycle 39, + glucose): 1.419
- Fluorescence raw data, Channel Cycling A.530/585hp (cycle 39, without glucose): 1.481
- Fluorescence raw data, Channel Cycling A.530/585hp (cycle 40, + glucose): 1.457
- Fluorescence raw data, Channel Cycling A.530/585hp (cycle 40, without glucose): 1.478
- Fluorescence raw data, Channel Cycling A.530/585hp (cycle 41, + glucose): 1.372
- Fluorescence raw data, Channel Cycling A.530/585hp (cycle 41, without glucose): 1.475
- Fluorescence raw data, Channel Cycling A.530/585hp (cycle 42, + glucose): 1.37
- Fluorescence raw data, Channel Cycling A.530/585hp (cycle 42, without glucose): 1.475
- Fluorescence raw data, Channel Cycling A.530/585hp (cycle 43, + glucose): 1.3901
- Fluorescence raw data, Channel Cycling A.530/585hp (cycle 43, without glucose): 1.4822
- Fluorescence raw data, Channel Cycling A.530/585hp (cycle 44, + glucose): 1.383
- Fluorescence raw data, Channel Cycling A.530/585hp (cycle 44, without glucose): 1.466
- Fluorescence raw data, Channel Cycling A.530/585hp (cycle 45, + glucose): 1.36
- Fluorescence raw data, Channel Cycling A.530/585hp (cycle 45, without glucose): 1.436
- Fluorescence raw data, Channel Cycling A.530/585hp (cycle 46, + glucose): 1.382
- Fluorescence raw data, Channel Cycling A.530/585hp (cycle 46, without glucose): 1.443
- Fluorescence raw data, Channel Cycling A.530/585hp (cycle 47, + glucose): 1.378
- Fluorescence raw data, Channel Cycling A.530/585hp (cycle 47, without glucose): 1.441
- Fluorescence raw data, Channel Cycling A.530/585hp (cycle 48, + glucose): 1.366
- Fluorescence raw data, Channel Cycling A.530/585hp (cycle 48, without glucose): 1.459
- Fluorescence raw data, Channel Cycling A.530/585hp (cycle 49, + glucose): 1.364
- Fluorescence raw data, Channel Cycling A.530/585hp (cycle 49, without glucose): 1.415
- Fluorescence raw data, Channel Cycling A.530/585hp (cycle 50, + glucose): 1.345
- Fluorescence raw data, Channel Cycling A.530/585hp (cycle 50, without glucose): 1.468
- Fluorescence raw data, Channel Cycling A.530/585hp (cycle 51, + glucose): 1.365
- Fluorescence raw data, Channel Cycling A.530/585hp (cycle 51, without glucose): 1.421
- Fluorescence raw data, Channel Cycling A.530/585hp (cycle 52, + glucose): 1.336
- Fluorescence raw data, Channel Cycling A.530/585hp (cycle 52, without glucose): 1.473
- Fluorescence raw data, Channel Cycling A.530/585hp (cycle 53, + glucose): 1.34
- Fluorescence raw data, Channel Cycling A.530/585hp (cycle 53, without glucose): 1.466
- Fluorescence raw data, Channel Cycling A.530/585hp (cycle 54, + glucose): 1.309
- Fluorescence raw data, Channel Cycling A.530/585hp (cycle 54, without glucose): 1.466
- Fluorescence raw data, Channel Cycling A.530/585hp (cycle 55, + glucose): 1.3623
- Fluorescence raw data, Channel Cycling A.530/585hp (cycle 55, without glucose): 1.416
- Fluorescence raw data, Channel Cycling A.530/585hp (cycle 56, + glucose): 1.331
- Fluorescence raw data, Channel Cycling A.530/585hp (cycle 56, without glucose): 1.427
- Fluorescence raw data, Channel Cycling A.530/585hp (cycle 57, + glucose): 1.368
- Fluorescence raw data, Channel Cycling A.530/585hp (cycle 57, without glucose): 1.423
- Fluorescence raw data, Channel Cycling A.530/585hp (cycle 58, + glucose): 1.332
- Fluorescence raw data, Channel Cycling A.530/585hp (cycle 58, without glucose): 1.416
- Fluorescence raw data, Channel Cycling A.530/585hp (cycle 59, + glucose): 1.363
- Fluorescence raw data, Channel Cycling A.530/585hp (cycle 59, without glucose): 1.442
- Fluorescence raw data, Channel Cycling A.530/585hp (cycle 60, + glucose): 1.351
- Fluorescence raw data, Channel Cycling A.530/585hp (cycle 60, without glucose): 1.452
- Fluorescence raw data, Channel Cycling A.530/585hp (cycle 61, + glucose): 1.355
- Fluorescence raw data, Channel Cycling A.530/585hp (cycle 61, without glucose): 1.419
